Laboratory results published in article PMC12670160, “A drug-repurposing screen of FDA- and EMA-approved drugs identifies two NF-κB inhibitors active against eumycetoma” (Journal of Antimicrobial Chemotherapy, 2025).
Counter-ions that a name gives are not always drawn. The whole screen tested about 5,300 compounds, of which about 130 (2.5%) showed an effect of 50% or more. Some of the results follow.

The compounds below were run on M. mycetomatis strain mm55. Details: primary screen, metabolic activity vs growth control; 96 h, 2 µM; inhibitor.

| SMILES | % viability |
| --- | --- |
| CCNCCCNCCCCNCCCNCC [ONC0001353, 112besm] | 108.7% |
| Cc1cccc(C)c1NC(=O)CN1CCN(CCCC(c2ccc(F)cc2)c2ccc(F)cc2)CC1 [ONC0002360, lidoflazine] | 112.8% |
| Oc1cc(O)cc(/C=C/c2ccc(O)c(O)c2)c1 [ONC0004475, piceatannol] | 94.27% |
| O=C(NC1CC1)c1cc(-c2cccs2)on1 [ONC0002467, isx9] | 66.36% |
| CN1C(=O)N(c2cc(Cl)cc(Cl)c2)C(=O)[C@]12CN(Cc1cc(C(=O)O)cs1)C[C@H]2c1ccc(C#N)cc1 [ONC0001973, bms587101] | 86% |
| CCCCOc1ccc(-c2cncc(C(=O)NCc3cccnc3N3CCOCC3)c2)cc1Cl [ONC0002493, a887826] | 81.72% |
| CCN1CCN(c2ccc(Nc3cc(N(C)C(=O)Nc4c(Cl)c(OC)cc(OC)c4Cl)ncn3)cc2)CC1 [ONC0004412, bgj398 nvpbgj398] | 153.1% |
| Nc1nc(=O)[nH]cc1F [ONC0004154, flucytosine] | 87.46% |
| Clc1cc(Cl)c(OCC#CI)cc1Cl [ONC0002291, haloprogin] | 78.44% |
| CCCCCS(=O)(=O)CCCCCCCCCCn1c(-c2ccc(O)cc2)c(C)c2cc(O)ccc21 [ONC0000107, zk164015] | 115.3% |
| CC[C@@]1(O)C(=O)OCc2c1cc1n(c2=O)Cc2cc3c(CN(C)C)c(O)ccc3nc2-1 [ONC0000766, topotecan hydrochloride] | 74.7% |
| Cc1cc(Nc2cc(CN3CCOCC3)c3nc(C)c(Cc4ccc(Cl)cc4F)n3n2)n[nH]1 [ONC0004991, gandotinib ly2784544] | 97.64% |
| CCOC(=O)N[C@@H]1CC[C@@H]2[C@@H](C1)C[C@H]1C(=O)O[C@H](C)[C@H]1[C@H]2/C=C/c1ccc(-c2cccc(F)c2)cn1 [ONC0000376, vorapaxar] | 61.62% |
| NCCNc1ccc(NCCN)c2c1C(=O)c1ccncc1C2=O.O=C(O)/C=C\C(=O)O.O=C(O)/C=C\C(=O)O [ONC0000916, pixantrone dimaleate] | 85.22% |
| Nc1nnc(-c2cccc(Cl)c2Cl)c(N)n1 [ONC0004106, lamotrigine] | 106.8% |
| O=c1c(-c2ccccc2)c1-c1ccccc1 [ONC0002186, diphencyprone] | 90.26% |
| CN1C(=O)N(c2ccc(C#N)c(C(F)(F)F)c2)C(=O)[C@]1(CO)c1ccccc1 [ONC0001168, glpg0492 r enantiomer] | 118.7% |
| O=C1c2ccccc2CCC1CNCCc1ccc(O)cc1 (centres unmarked) [ONC0002614, be2254] | 77.21% |
| O=C(O)c1ccc(O)c2ncccc12 [ONC0001204, iox1] | 89.28% |
| COc1cc2ncnc(Nc3ccc(O)c(Br)c3)c2cc1OC [ONC0004777, whip154] | 106.5% |
| Cc1ccc(S(N)(=O)=O)cc1 [ONC0003698, paratoluenesulfonamide] | 85.86% |
| O=C(OCC(O)CO)c1ccccc1Nc1ccnc2c(C(F)(F)F)cccc12 (centres unmarked) [ONC0004759, floctafenine] | 102.3% |

| SMILES | % viability |
| --- | --- |
| Cc1cccc(NC(=O)CN2CCC(c3ccccn3)CC2)c1 [ONC0000843, a412997] | 54.65% |
| CO[C@H]1C[C@@H]2CC[C@@H](C)[C@@](O)(O2)C(=O)C(=O)N2CCCC[C@H]2C(=O)O[C@H]([C@H](C)C[C@@H]2CC[C@H](n3cnnn3)[C@H](OC)C2)CC(=O)[C@H](C)/C=C(\C)[C@@H](O)[C@@H](OC)C(=O)[C@H](C)C[C@H](C)/C=C/C=C/C=C/1C [ONC0000353, zotarolimus] | 64.47% |
| Cc1ccc(NC(=O)c2ccc(CN3CCC(N(C)C)C3)c(C(F)(F)F)c2)cc1Nc1ncc(-c2cncnc2)cn1 (centres unmarked) [ONC0004625, bafetinib inno406] | 85.25% |
| CCCC(=O)Nc1cccc(NC(=O)c2ccccc2Br)c1 [ONC0001474, ml161] | 73.73% |
| O=c1cccc2n1C[C@@H]1CNC[C@H]2C1 [ONC0003003, cytisine] | 81.48% |
| CN(C(=O)Cc1ccccc1)[C@H](CN1CCCC1)c1ccccc1 [ONC0002640, nmppp] | 98.85% |
| Cc1ccc(C(C)C)c(O)c1 [ONC0003708, thymol] | 115.4% |
| NCC1(CC(=O)O)CCCCC1 [ONC0004013, gabapentin] | 72.23% |
| CCOC(=O)N1CSCC1C(=O)O (centres unmarked) [ONC0002766, 3ethyl thiazolidine34dicarboxylate] | 97.19% |
| O=C1CC2(CCCC2)CC(=O)N1CCCCNCC1COc2ccccc2O1 (centres unmarked) [ONC0001554, mdl72832] | 112.9% |
| N=C(N)N=Nc1ccc(NNC(=N)S)cc1 [ONC0002980, ambazone] | 75.31% |
| Fc1ccc(C(OCCN2CCN(C/C=C/c3ccccc3)CC2)c2ccc(F)cc2)cc1 [ONC0001678, gbr13069] | 64.41% |
| CC[C@H](C)C(=O)O[C@H]1C[C@H](O)C=C2C=C[C@H](C)[C@H](CC[C@@H](O)C[C@@H](O)CC(=O)O)[C@H]21 [ONC0004047, pravastatin sodium] | 89.55% |
| Cc1cccn2c(=O)c(-c3nnn[nH]3)cnc12 [ONC0001181, pemirolast potassium] | 82.69% |
| CN1CC(=O)N=C1NC(=O)Nc1cccc(Cl)c1 [ONC0001340, fenobam] | 110.6% |
| CCOCCn1c(N2CCCN(C)CC2)nc2ccccc21 [ONC0002778, emedastine difumarate] | 106% |
| Clc1cccc(-n2nnnc2NCc2ccccc2Oc2ccccn2)c1Cl [ONC0001456, a839977] | 77.49% |
| CC1(C)CC(=O)C(C2C3=C(CC(C)(C)CC3=O)Oc3ccccc32)C(=O)C1 (centres unmarked) [ONC0001684, l152804] | 75.84% |
| O=S1(=O)CCN(CN2CCS(=O)(=O)NC2)CN1 [ONC0002116, taurolidine] | 83.67% |
| Nc1nc(Nc2ccccc2)nc2c1ncn2[C@@H]1O[C@H](CO)[C@@H](O)[C@H]1O [ONC0001740, cv1808] | 67.53% |
| N=C(N)Nc1ccc(Cl)cc1 [ONC0000368, 4chlorophenylguanidine] | 70.79% |
| Cc1nc(C)c(C)nc1C [ONC0003449, tetramethylpyrazine] | 70.83% |

| SMILES | % viability |
| --- | --- |
| Cl.O=C(c1ccc(-c2ccc(Cl)cc2)o1)N(Cc1ccccn1)c1ccc(N2CCNCC2)cc1 [ONC0002178, mk2in1 hydrochloride] | 65.24% |
| O=C1c2cc(Cl)ccc2OC2CCON12 (centres unmarked) [ONC0003843, seclazone] | 64.53% |
| CCNC(=O)CCC(N)C(=O)O (centres unmarked) [ONC0003472, ltheanine] | 73.98% |
| Cc1ccc(S(=O)(=O)/C=C/C#N)cc1 [bay117082] | 112.1% |
| Nc1ccccc1NC(=O)c1ccc(CNc2nccc(-c3cccnc3)n2)cc1 [ONC0002464, mocetinostat] | 89.27% |
| Cn1nc(-c2ccc(C(F)(F)F)cc2)nc2c(=O)n(C)c(=O)nc1-2 [ONC0001770, walrycin b] | 125% |
| O=[N+]([O-])c1ccc(Cl)c([N+](=O)[O-])c1 [ONC0005611, 24dinitrochlorobenzene] | 80.45% |
| Cc1cccc(C)c1NC(=O)C[N+](C)(C)C [ONC0000104, qx222] | 105.9% |
| c1ccc2c(c1)OC[C@H](CNCCCOc1ccc3c(c1)OCO3)O2 [ONC0002135, osemozotan] | 69.13% |
| O=C(OCCN1CCCCC1)c1c[nH]c2ccccc12 [ONC0002524, sb203186] | 63.19% |
| O=C(CCCN1CCC2(CC1)C(=O)NCN2c1ccccc1)c1ccc(F)cc1 [ONC0000014, spiperone] | 87.63% |
| CC(C)n1c(=O)n(C(=O)NC2CC3CCC(C2)N3C)c2ccccc21 (centres unmarked) [ONC0004172, bimu8 hydrate] | 87.83% |
| Nc1ncc(Cc2ccc(Br)cc2)s1 [ONC0001370, ns19504] | 73.87% |
| Nc1ncnc2c1ncn2[C@@H]1O[C@H](CO)C[C@H]1O [ONC0003004, cordycepin] | 108% |
| O=C(O)c1ccc(NC2OC(CO)C(O)C(O)C2O)cc1 (centres unmarked) [ONC0003638, n4carboxyphenylalphadmannopyranosylamine] | 73.46% |
| CC/C=C(\C(=O)N[C@@H]1C(=O)N2C(C(=O)OCOC(=O)C(C)(C)C)=C(COC(N)=O)CS[C@H]12)c1csc(N)n1 [ONC0003350, cefcapene pivoxil hydrochloride monohydrate] | 73.97% |
| COc1ccc2cc3[n+](cc2c1OC)CCc1cc2c(cc1-3)OCO2 [ONC0003235, berberine chloride] | 80.03% |
| COc1cc2c(cc1Cc1cccc(Cl)c1F)c(=O)c(C(=O)O)cn2[C@H](CO)C(C)C [ONC0004910, elvitegravir gs9137] | 133.1% |
| Nc1ncnc2c1ncn2[C@H]1CC[C@@H](CO)O1 [ONC0003689, 23dideoxyadenosine] | 49.81% |
| CC(C)Cc1ccc([C@@H](C)C(=O)NS(C)(=O)=O)cc1 [ONC0001293, reparixin] | 54.34% |
| COc1cc(CN2CCN(c3ccc(F)cc3)CC2)cc(OC)c1OC [ONC0003564, 14fluorophenyl4345trimethoxybenzylpiperazine] | 82.72% |

6 structures already listed, arranged by number of heavy atoms, ascending:

| SMILES | % viability |
| --- | --- |
| O=c1cccc2n1C[C@@H]1CNC[C@H]2C1 [ONC0003003, cytisine] | 81.48% |
| N=C(N)N=Nc1ccc(NNC(=N)S)cc1 [ONC0002980, ambazone] | 75.31% |
| CC(C)Cc1ccc([C@@H](C)C(=O)NS(C)(=O)=O)cc1 [ONC0001293, reparixin] | 54.34% |
| COc1cc(CN2CCN(c3ccc(F)cc3)CC2)cc(OC)c1OC [ONC0003564, 14fluorophenyl4345trimethoxybenzylpiperazine] | 82.72% |
| O=C(OCC(O)CO)c1ccccc1Nc1ccnc2c(C(F)(F)F)cccc12 (centres unmarked) [ONC0004759, floctafenine] | 102.3% |
| CO[C@H]1C[C@@H]2CC[C@@H](C)[C@@](O)(O2)C(=O)C(=O)N2CCCC[C@H]2C(=O)O[C@H]([C@H](C)C[C@@H]2CC[C@H](n3cnnn3)[C@H](OC)C2)CC(=O)[C@H](C)/C=C(\C)[C@@H](O)[C@@H](OC)C(=O)[C@H](C)C[C@H](C)/C=C/C=C/C=C/1C [ONC0000353, zotarolimus] | 64.47% |
